# Screening data

Data taken from PubChem BioAssay AID1159506, deposited by NCATS (2015).

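Luminescence from an EWS-FLI1 target-promoter (NR0B1) reporter, set against a CMV-promoter reporter, two days after silencing single genes in TC32 Ewing sarcoma cells.
Each siRNA was applied at 20 nM.
A z-score of the log NR0B1-over-CMV signal, less the median of siRNAs with the same seed; more negative means a stronger specific loss of the NR0B1 reporter.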

The strongest results of the screen are mostly left out here.
Sequences are the guide (antisense) strand, without overhang.

strand	target gene	seed-corrected z-score
UCACGUAGAAGAAAGGUUU	KIAA1147	1.196
UUAUUUGUUUGGGAGAUUC	MTDH	0.6612
UUCCCGAUGAUGCCUGUGC	SGSH	-0.2066
UGUUCAAUAAGUUUCAUCU	JADE2	0.4373
AGAAGUUGAAAAGUUCCCG	ENTPD8	-0.2735
AAAAUUGCAAUGUCUAGCU	BAALC	-0.3291
UUCGUGAACACUGGUGGAG	C1orf94	0.1008
AUCAGAAUGAGGUUGAAUG	CYP11A1	1.407
UAAGGUUAGCAGAUGCGGC	PPP4R1	-0.8594
UACCCUUUGAGGAUGUUGA	GGT1	0.9206
UUCGUUUGGUUUUAUAGUG	MS4A14	-0.3166
UUGAUAACUGUGAUUUUCG	CDON	0.2303
UUUAUAGCAGGUGGUAUUC	COPS8	0.001953
UUCGUAUAAGAUUGAUUCC	EML5	0.1864
UUAACCAUGAGGGCAUUGG	MORC1	-1.162
ACCCUUUUCACCACUCAGC	MAGEB16	-0.7874
UUUUGAUCUGAAUCGAAUG	LAMA3	-0.9671
ACAGGGUCCAAUGUUCAGG	CPSF1	0.3884
UUUUGUCGCUUGUUUCUUG	PLA2G16	-0.6811
UUGCUAUUCAGAAGACAUG	MOB4	-1.221
UAGUAAACAACCUACAUCU	C3orf56	-0.1304
UUUAUAUGGAUGUUUAUCA	TAS2R14	0.914
UCUGAUCUCGGAGAAAUAG	NOP9	0.6274
UUGCAUUCGAUGAAUGGUG	COL4A2	0.9785
UUGAGGGAGUCGAAUAACC	NBPF9	-0.6229
UUAAUGUCCACAUAAAGGC	SLCO2B1	-0.9957
AUUGGUCUUAUUAGCAGCC	MTFR2	-0.4729
UCGAUUAACAGGAAAUUUG	APPL1	-0.1075
UGAAGAUCGAUGAUGGGUG	MRPL37	0.3802
UAUCGUCAAACUGGAUUUC	EIF1AY	-0.1445
UGAUGUCUAAAAAGGUUGG	ZNF394	0.195
AAACAGAUACGUUCCUUUC	RPS19BP1	-1.076
UCAAUGCUCAGGGAGUCGA	SARDH	0.01211
UUCUUUGUGGGCGUGCUGG	EDAR	-0.4077
UGACUGUUUGUGACCGUUC	FAM19A2	-0.7875
UGCCUUAUGAGGUUUGUAC	ZNF322P1	-0.7967
UCUGAGGCUGCUUAAGUCG	C9orf9	0.2398
UUCCAGGUAUGAUACAUGA	LOC642502	-0.1522
UUCAAUUAUUGAGUGGUUC	NCAPD2	0.2761
UCAUCAUCAAUACGGAUCC	RIT1	-0.6815
AAUGUAACCAGCAUAUGCC	PHF23	0.4252
UUCUGGACAAAGUAACCCU	GUSB	-0.198
AUAUUCGUAAAUGCUCUUG	SORBS1	-0.09816
UUUGCUUCCAGAUAAGGCA	ERMAP	-0.04245
UGCAGAGUCACCAUCAAGC	MRPL27	-0.01624
UAUUCGAUCUCUCUUGACC	UPF3B	0.1769
AACAGGACACUGUUGUACC	MFSD10	-0.2646
UCCCUUACAAAUCCUGGAC	BOLA1	0.3287
UUUGUUUCAAUCCCGUCAC	CD160	-1.348
UCUUUCUCCGGAUUGAGCC	SLC12A5	1.003
UUAUAGACUGGAGGUCUUC	TRAF1	-0.01305
AUCCUUAGAAUCUGAAUGC	C14orf169	-0.162
AAUCUUCAAGUGCUCAUUG	TRIM65	1.061
AAUGGUCCAUUUUUGAUCU	EHMT1-IT1	-0.3378
UUGCAUACACUGCACAUCC	WDR35	0.3751
UGUACUUGUACUCUGAGCC	FTSJ1	-0.2064
AAAGGACCCAGAGGAAUCC	OR6T1	0.2313
UGACUUCACAGCUUCCAGC	NR1I3	-1.699
AUUGUGAAUCGAGAGGUCC	NCR2	-0.6143
UUCUGAAUGAACUCAAGCC	PKN3	-1.47
UUUGGUGUUAUACUUCCUC	RDH13	0.9753
UAUGUAGACAGGAUAGUUG	BEND4	0.7073
UAUUAUUGUAUUCUGAACA	CARD16	1.262
AACUUUCUGAACGUGCUCC	COMMD5	0.2224
UUUUCGGAUAGGCUGAUGC	GOLGA4	-0.3166
UUCCGACUUAUCGUCAUCC	CHD7	-0.8613
UUUGAGACGUGCAGAAUUC	LOC340268	0.07892
UCAGCAAGAAAGUCGAUGU	IMPDH1	0.4789
UCAUGGUUCAACUCGUCUG	LOC389842	0.6475
AACUUGAUUGGUUUGCGUC	SATL1	-0.8234
UGUUGUCAAACCACGAGGC	CTDSP1	-0.1358
UGUUGAACUUGAGACCUCC	LENG8	0.7963
AUCUUUACAUCGUUGAACC	TIMD4	1.058
AAAGAUCAUCGAUCAGUUG	KRTAP9-2	-0.55
UGCUUUGCCUCCAUCCAGC	C1QL1	-1.587

Repeated from the top, 8 entries:

{"strand": "UCACGUAGAAGAAAGGUUU", "target gene": "KIAA1147", "seed-corrected z-score": "1.196"}
{"strand": "UUAUUUGUUUGGGAGAUUC", "target gene": "MTDH", "seed-corrected z-score": "0.6612"}
{"strand": "UUCCCGAUGAUGCCUGUGC", "target gene": "SGSH", "seed-corrected z-score": "-0.2066"}
{"strand": "UGUUCAAUAAGUUUCAUCU", "target gene": "JADE2", "seed-corrected z-score": "0.4373"}
{"strand": "AGAAGUUGAAAAGUUCCCG", "target gene": "ENTPD8", "seed-corrected z-score": "-0.2735"}
{"strand": "AAAAUUGCAAUGUCUAGCU", "target gene": "BAALC", "seed-corrected z-score": "-0.3291"}
{"strand": "UUCGUGAACACUGGUGGAG", "target gene": "C1orf94", "seed-corrected z-score": "0.1008"}
{"strand": "AUCAGAAUGAGGUUGAAUG", "target gene": "CYP11A1", "seed-corrected z-score": "1.407"}